Experimental data: article PMC5216926
These are yes or no findings as the source states them, for the method shown. Binding seen in cells or lysates may run through a third protein. Some results given as binding are weak or reduced against the parent protein; the word gives no strength.

Sequences of proteins named here, by UniProt entry; tags and fusion partners are left off.
UniProt Q01860: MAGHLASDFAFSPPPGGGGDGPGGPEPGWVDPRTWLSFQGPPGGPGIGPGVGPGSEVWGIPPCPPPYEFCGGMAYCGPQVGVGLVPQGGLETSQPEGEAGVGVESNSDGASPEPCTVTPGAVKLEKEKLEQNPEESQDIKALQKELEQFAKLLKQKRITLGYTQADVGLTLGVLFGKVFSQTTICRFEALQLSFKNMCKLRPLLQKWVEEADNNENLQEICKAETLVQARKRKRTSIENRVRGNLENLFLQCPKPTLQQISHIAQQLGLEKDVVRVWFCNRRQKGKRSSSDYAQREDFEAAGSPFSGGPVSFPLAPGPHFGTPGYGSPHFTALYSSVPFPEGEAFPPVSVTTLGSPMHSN
UniProt Q9H6I2: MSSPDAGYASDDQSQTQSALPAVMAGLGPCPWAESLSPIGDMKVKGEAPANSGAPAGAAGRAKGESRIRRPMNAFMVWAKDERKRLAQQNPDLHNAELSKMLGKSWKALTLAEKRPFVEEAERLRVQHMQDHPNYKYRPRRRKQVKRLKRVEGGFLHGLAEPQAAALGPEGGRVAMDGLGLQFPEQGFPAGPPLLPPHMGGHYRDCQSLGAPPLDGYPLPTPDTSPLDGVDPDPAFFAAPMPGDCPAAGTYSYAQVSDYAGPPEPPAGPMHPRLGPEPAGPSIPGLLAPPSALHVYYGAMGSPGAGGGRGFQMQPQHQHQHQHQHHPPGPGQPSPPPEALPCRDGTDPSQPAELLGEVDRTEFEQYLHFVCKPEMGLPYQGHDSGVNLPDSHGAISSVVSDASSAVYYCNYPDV

Target: OCT3/4 (human (endogenous in TCam-2)) (UniProt Q01860)
Experiment: co-IP; endogenous proteins in TCam-2 lysate; Dynabeads Protein G (1.5 mg) with 10 ug IP-antibody; 200 ug total protein lysate; immunoprecipitation at RT for 2 h; western blotting

binding: binds
Substance: SOX17 (from UniProt Q9H6I2 1-414)
